# Measurements reported in US20230235004A1.
# Legend:
# [1] = biological target: cyno MAdCAM protein (cyno); test: Octet
# [2] = biological target: cyno MAdCAM protein (cyno); test: ELISA
binding [1],binding [2],Binder
binds,,MAdCAM antibody Table 1 clone 61 (scFv) scFv: EVQLLESGGGLVQPGGSLRLSCAASEFTFSNAWMSWVRQAPGKGLEWVASISSTSAYIDYADSVKGRFTISRDNSKNTLYLQMNSLRAEDTAVYYCAREVVGATTFDYWGQGTLVTVSSGGGGSGGGGSGGGGSGGGGSDIQMTQSPSSLSASVGDRVTITCRASQSISTWLAWYQQKPGKAPKLLIYAASSLQSGVPSRFSGSGSGTDFTLTISSLQPEDFATYYCQQANAFPPTFGQGTRLEIK
binds,,MAdCAM antibody Table 1 clone 66 (scFv) scFv: EVQLLESGGGLVQPGGSLRLSCAASGFTFSSYWMHWVRQAPGKGLEWVAAISYDGKYKDYEDSVKGRFTISRDNSKNTLYLQMNSLRAEDTAVYYCARENKQWLASFDYWGQGTLVTVSSGGGGSGGGGSGGGGSGGGGSDIQMTQSPSSLSASVGDRVTITCQASQDISNFVNWYQQKPGKAPKLLIYAANLRSGVPSRFSGSGSGTDFTLTISSLQPEDFATYYCQQANSFPVTFGPGTKVDIK
binds,,"MAdCAM Antibody Table 2 clone 4 (antibody, V domains shown) VH: QVQLVQSGAEVKKPGASVKVSCKASGGTFSSYAISWVRQAPGQGLEWMGSINPSGDTTSYAQKFQGRVTMTRDTSTSTVYMELSSLRSEDTAVYYCAKDKAQWLVGYFDYWGQGTLVTVSS VL: DIQMTQSPSSLSASVGDRVTITCQASQDISNSLNWYQQKPGKAPKLLIYAASSLQSGVPSRFSGSGSGTDFTLTISSLQPEDFATYYCQQSYSSVITFGQGTKVEIK"
binds,,"MAdCAM Antibody Table 2 clone 5 (antibody, V domains shown) VH: EVQLLESGGGLVQPGGSLRLSCAASGFTFSSYWMHWVRQAPGKGLEWVSSISPGGSNIDYADSVKGRFTISRDNSKNTLYLQMNSLRAEDTAVYYCAREVQLSHYDYWGQGTLVTVSS VL: DIQMTQSPSSLSASVGDRVTITCRASQGISNSLAWYQQKPGKAPKLLIYGASSLQSGVPSRFSGSGSGTDFTLTISSLQPEDFATYYCQQANSFPFTFGQGTKVEIK"
binds,,"MAdCAM Antibody Table 2 clone 11 (antibody, V domains shown) VH: EVQLLESGGGLVQPGGSLRLSCAASGFTFSDYYMNWVRQAPGKGLEWVSVIGESGGSTYYADSVKGRFTISRDNSKNTLYLQMNSLRAEDTAVYYCAADPVSRWPKHGGGDYWGQGTLVTVSS VL: DIQMTQSPSSLSASVGDRVTITCRASQGISSSLAWYQQKPGKAPKLLIYAASTLQSGVPSRFSGSGSGTDFTLTISSLQPEDFATYYCQQSYSTPWTFGQGTKVEIK"
binds,,"MAdCAM Antibody Table 2 clone 8 (antibody, V domains shown) VH: QVQLVQSGAEVKKPGASVKVSCKASGYTFTGYHIHWVRQAPGQGLEWMGIINPSGGSTIYAQKFQGRVTMTRDTSTSTVYMELSSLRSEDTAVYYCAKDWSSWYLGPFDYWGQGTLVTVSS VL: DIQMTQSPSSLSASVGDRVTITCRASQNISSSLNWYQQKPGKAPKLLIYAASSLQSGVPSRFSGSGSGTDFTLTISSLQPEDFATYYCQQSYTTPYTFGQGTKVEIK"
binds,,"MAdCAM Antibody Table 2 clone 17 (antibody, V domains shown) VH: QVQLVQSGAEVKKPGSSVKVSCKASGYTFTDYHIHWVRQAPGQGLEWMGGIVPRSGSTTYAQKFQGRVTITADESTSTAYMELSSLRSEDTAVYYCAKDESSGWYYFDYWGQGTLVTVSS VL: DIVMTQSPLSLPVTPGEPASISCRSSQSLLHSNGYNYLDWYLQKPGQSPQLLIYSAYNRASGVPDRFSGSGSGTDFTLKISRVEAEDVGVYYCMQALQTPLTFGQGTKVEIK"
,binds,MAdCAM antibody Table 1 clone 11 (scFv) scFv: QVQLVQSGAEVKKPGASVKVSCKASGYTFTTYYMHWVRQAPGQGLEWMGGFDPEDGETIYAQKFQGRVTMTRDTSTSTVYMELSSLRSEDTAVYYCARHAVAGAVGAGYYYYGMDVWGQGTMVTVSSGGGGSGGGGSGGGGSGGGGSDIQMTQSPSSLSASVGDRVTITCRASESISNWLAWYQQKPGKAPKLLIYAASTLQSGVPSRFSGSGSGTDFTLTISSLQPEDFATYYCQQSYSVPFTFGPGTKVDIK
binds,,MAdCAM antibody Table 1 clone 65 (scFv) scFv: QVQLVQSGAEVKKPGASVKVSCKASGYTFTRHWIHWVRQAPGQGLEWMGWINVKTGGAGYAQKFQGRVTMTRDTSTSTVYMELSSLRSEDTAVYYCARESSGWYGTDVWGQGTTVTVSSGGGGSGGGGSGGGGSGGGGSDIQMTQSPSSLSASVGDRATITCRASQSISNYLAWYQQKPGKAPKLLIYAASSLQSGVPSRFSGSGSGTDFTLTISSLQPEDFATYYCQQSNSFPLTFGGGTKVEIK
,binds,MAdCAM antibody Table 1 clone 14 (scFv) scFv: QVQLVQSGAEVKKPGSSVKVSCKASGYTFTDYHIHWVRQAPGQGLEWMGGIVPRSGSTTYAQKFQGRVTITADESTSTAYMELSSLRSEDTAVYYCAKDESSGWYYFDYWGQGTLVTVSSGGGGSGGGGSGGGGSGGGGSDIVMTQSPLSLPVTPGEPASISCRSSQSLLHSNGYNYLDWYLQKPGQSPQLLIYSAYNRASGVPDRFSGSGSGTDFTLKISRVEAEDVGVYYCMQALQTPLTFGQGTKVEIK
,binds,MAdCAM antibody Table 1 clone 8 (scFv) scFv: EVQLLESGGGLVQPGGSLRLSCAASGFMFGDYAMHWVRQAPGKGLEWVSAISGSGGSTYYADSVKGRFTISRDNSKNTLYLQMNSLRAEDTAVYYCAKDLVVAGIWYFDLWGRGTLVTVSSGGGGSGGGGSGGGGSGGGGSDIQMTQSPSSLSASVGDRVTITCRASQGISNNLNWYQQKPGKAPKLLIYDASSLESGVPSRFSGSGSGTDFTLTISSLQPEDFATYYCQQTHSFPSTFGQGTKLEIK
binds,,MAdCAM antibody Table 1 clone 23 (scFv) scFv: EVQLLESGGGLVQPGGSLRLSCAASGFTFSSYAMHWVRQAPGKGLEWVSGISGSGGSAYYADSVKGRFTISRDNSKNTLYLQMNSLRAEDTAVYYCATSQAPVDYYYYGMDVWGQGTTVTVSSGGGGSGGGGSGGGGSGGGGSDIQMTQSPSSLSASVGDRVTITCRASQSISSWLAWYQQKPGKAPKLLIYAASNLQRGVPSRFSGSGSGTDFTLTISSLQPEDFATYYCQQSYSIPITFGQGTKVEIK
,binds,MAdCAM antibody Table 1 clone 12 (scFv) scFv: QVQLVQSGAEVKKPGASVKVSCKASGYTFTGYYMHWVRQAPGQGLEWMGWIGPNSGDTNYAQKFQGRVTMTRDTSTSTVYMELSSLRSEDTAVYYCARDLDHNWYFDLWGRGTLVTVSSGGGGSGGGGSGGGGSGGGGSDIVMTQSPLSLPVTPGEPASISCRSSQSLLHSNGYNYLDWYLQKPGQSPQLLIYSSSNRAPGVPDRFSGSGSGTDFTLKISRVEAEDVGVYYCMQALHIPLTFGGGTKVEIK
,binds,MAdCAM antibody Table 1 clone 13 (scFv) scFv: EVQLLESGGGLVQPGGSLRLSCAASGFTFDDYAMHWVRQAPGKGLEWVSYIDASGTTIYYADSVKGRFTISRDNSKNTLYLQMNSLRAEDTAVYYCAKDQAAAGYWYFDLWGRGTLVTVSSGGGGSGGGGSGGGGSGGGGSDIQMTQSPSSLSASVGDRVTITCQASQDISNYLNWYQQKPGKAPKLLIYKASTLESGVPSRFSGSGSGTDFTLTISSLQPEDFATYYCQQSYSTPITFGQGTRLEIK
binds,,MAdCAM antibody Table 1 clone 59 (scFv) scFv: EVQLLESGGGLVQPGGSLRLSCAASGFTFSDFWMHWVRQAPGKGLEWISYISGDSGYTNYADSVKGRFTISRDNSKNTLYLQMNSLRAEDTAVYYCARDRPYYYYMDVWGKGTTVTVSSGGGGSGGGGSGGGGSGGGGSDIQMTQSPSSLSASVGDRVTITCRASQSVSRSLAWYQQKPGKAPKLLIYAASSLQSGVPSRFSGSGSGTDFTLTISSLQPEDFATYYCQQYKSYPVTFGQGTKVEIK
,binds,MAdCAM antibody Table 1 clone 15 (scFv) scFv: QVQLVQSGAEVKKPGSSVKVSCKASGYTFTNYYMHWVRQAPGQGLEWMGGIIPIVDRVKYAQKFQGRVTITADESTSTAYMELSSLRSEDTAVYYCAKGRYTVNYYYGMDVWGQGTTVTVSSGGGGSGGGGSGGGGSGGGGSDIQMTQSPSSLSASVGDRVTITCQANQDISNYLNWYQQKPGKAPKLLIYRASKLEAGVPSRFSGSGSGTDFTLTISSLQPEDFATYYCQQSSEIPYSFGQGTKLEIK
,binds,MAdCAM antibody Table 1 clone 10 (scFv) scFv: QVQLVQSGAEVKKPGASVKVSCKASGYTLTTWYMYWVRQAPGQGLEWMGWINPNRGATNYAQKFQGRVTMTRDTSTSTVYMELSSLRSEDTAVYYCAKGDLWGAMDVWGQGTLVTVSSGGGGSGGGGSGGGGSGGGGSDIQMTQSPSSLSASVGDRVTITCRASDNIGSWLAWYQQKPGKAPKLLIYAASSLQSGVPSRFSGSGSGTDFTLTISSLQPEDFATYYCQQGYSTPPTFGQGTKVEIK
binds,,MAdCAM antibody Table 1 clone 60 (scFv) scFv: EVQLLESGGGLVQPGGSLRLSCAASGFTFDDYTMHWVRQAPGKGLEWVSDISGSGGSTYYADSVKGRFTISRDNSKNTLYLQMNSLRAEDTAVYYCAKDVVVAGTPLHFDYWGQGTLVTVSSGGGGSGGGGSGGGGSGGGGSDIQMTQSPSSLSASVGDRVTITCQASQDISNYLNWYQQKPGKAPKLLIYAASYLQSGVPSRFSGSGSGTDFTLTISSLQPEDFATYYCQQAHNYPITFGQGTRLEIK
binds,,MAdCAM antibody Table 1 clone 63 (scFv) scFv: EVQLLESGGGLVKPGGSLRLSCAASGFTFDDYAMHWVRQAPGKGLEWVASITSSSAFIDYAASVKGRFTISRDDSKNTLYLQMNSLKTEDTAVYYCARERVDWNSYFDLWGRGTLVTVSSGGGGSGGGGSGGGGSGGGGSEIVMTQSPATLSVSPGERATLSCRASQGISNSYLAWYQQKPGQAPRLLIYGASTRATGIPARFSGSGSGTEFTLTISSLQSEDFAVYYCQQYYTYPPTFGPGTKVDIK
binds,,MAdCAM antibody Table 1 clone 20 (scFv) scFv: EVQLLESGGGLVQPGGSLRLSCAASGFTFDDYAMHWVRQAPGKGLEWVSYIDTSSSHLYYADSVKGRFTISRDNSKNTLYLQMNSLRAEDTAVYYCARDEAAAGYYGMDVWGQGTTVTVSSGGGGSGGGGSGGGGSGGGGSDIQMTQSPSSLSASVGDRVTITCQAGQDISNYLNWYQQKPGKAPKLLIYDASNLETGVPSRFSGSGSGTDFTLTISSLQPEDFATYYCQQTYSTPITFGQGTKLEIK
binds,,MAdCAM antibody Table 1 clone 64 (scFv) scFv: EVQLLESGGGLVKPGGSLRLSCAASGFAFSSHWMHWVRQAPGKGLEWVAGTSGSGESRDYADFVKGRFTISRDDSKNTLYLQMNSLKTEDTAVYYCARETYYYYYMDVWGKGTTVTVSSGGGGSGGGGSGGGGSGGGGSDIQMTQSPSSLSASVGDRVTITCRASQGISNYLAWYQQKPGKAPKLLIYDAANLEGGVPSRFSGSGSGTDFTLTISSLQPEDFATYYCQQSDIFPPTFGQGTKVEIK

# No constants are given. Whether binding was seen depends on the method and setting. Binding can be weak; no strength is given.
